Test results as given in patent publication US12516056B2, “Compounds for inhibition of janus kinase 1” (MANKIND PHARMA LTD., priority 2019, dated 2026).

Amino acid sequences for entries named in this document (tags omitted).
UniProt P23458, whole entry: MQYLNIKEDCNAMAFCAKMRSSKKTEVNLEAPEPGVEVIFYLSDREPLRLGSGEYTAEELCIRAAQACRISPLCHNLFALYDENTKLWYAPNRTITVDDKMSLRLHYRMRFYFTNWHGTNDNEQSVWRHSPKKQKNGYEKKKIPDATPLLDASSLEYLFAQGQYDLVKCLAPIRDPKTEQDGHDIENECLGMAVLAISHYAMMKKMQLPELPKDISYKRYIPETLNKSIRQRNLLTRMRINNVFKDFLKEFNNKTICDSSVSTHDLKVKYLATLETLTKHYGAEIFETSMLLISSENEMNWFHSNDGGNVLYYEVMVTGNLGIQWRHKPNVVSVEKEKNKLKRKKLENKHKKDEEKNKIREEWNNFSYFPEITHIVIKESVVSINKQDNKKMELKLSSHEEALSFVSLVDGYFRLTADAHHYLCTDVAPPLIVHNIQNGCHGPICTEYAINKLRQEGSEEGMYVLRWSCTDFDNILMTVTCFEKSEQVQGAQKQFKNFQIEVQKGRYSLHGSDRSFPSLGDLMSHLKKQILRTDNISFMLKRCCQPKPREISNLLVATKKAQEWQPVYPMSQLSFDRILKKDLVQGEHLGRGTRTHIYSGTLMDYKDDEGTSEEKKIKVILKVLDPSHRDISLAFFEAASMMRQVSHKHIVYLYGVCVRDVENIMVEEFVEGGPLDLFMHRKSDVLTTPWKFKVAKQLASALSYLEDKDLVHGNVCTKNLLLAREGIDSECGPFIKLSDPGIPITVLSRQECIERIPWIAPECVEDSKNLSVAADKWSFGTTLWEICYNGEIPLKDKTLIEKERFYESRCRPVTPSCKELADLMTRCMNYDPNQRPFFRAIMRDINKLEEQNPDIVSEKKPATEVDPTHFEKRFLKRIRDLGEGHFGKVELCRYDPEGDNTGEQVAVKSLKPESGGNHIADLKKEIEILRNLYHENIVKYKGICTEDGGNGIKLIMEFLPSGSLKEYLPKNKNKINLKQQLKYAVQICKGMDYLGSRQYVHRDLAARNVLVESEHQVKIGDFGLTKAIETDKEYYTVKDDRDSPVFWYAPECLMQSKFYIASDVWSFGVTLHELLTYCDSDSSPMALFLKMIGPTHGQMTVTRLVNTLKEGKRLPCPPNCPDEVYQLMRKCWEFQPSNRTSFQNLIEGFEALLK
UniProt O60674, whole entry: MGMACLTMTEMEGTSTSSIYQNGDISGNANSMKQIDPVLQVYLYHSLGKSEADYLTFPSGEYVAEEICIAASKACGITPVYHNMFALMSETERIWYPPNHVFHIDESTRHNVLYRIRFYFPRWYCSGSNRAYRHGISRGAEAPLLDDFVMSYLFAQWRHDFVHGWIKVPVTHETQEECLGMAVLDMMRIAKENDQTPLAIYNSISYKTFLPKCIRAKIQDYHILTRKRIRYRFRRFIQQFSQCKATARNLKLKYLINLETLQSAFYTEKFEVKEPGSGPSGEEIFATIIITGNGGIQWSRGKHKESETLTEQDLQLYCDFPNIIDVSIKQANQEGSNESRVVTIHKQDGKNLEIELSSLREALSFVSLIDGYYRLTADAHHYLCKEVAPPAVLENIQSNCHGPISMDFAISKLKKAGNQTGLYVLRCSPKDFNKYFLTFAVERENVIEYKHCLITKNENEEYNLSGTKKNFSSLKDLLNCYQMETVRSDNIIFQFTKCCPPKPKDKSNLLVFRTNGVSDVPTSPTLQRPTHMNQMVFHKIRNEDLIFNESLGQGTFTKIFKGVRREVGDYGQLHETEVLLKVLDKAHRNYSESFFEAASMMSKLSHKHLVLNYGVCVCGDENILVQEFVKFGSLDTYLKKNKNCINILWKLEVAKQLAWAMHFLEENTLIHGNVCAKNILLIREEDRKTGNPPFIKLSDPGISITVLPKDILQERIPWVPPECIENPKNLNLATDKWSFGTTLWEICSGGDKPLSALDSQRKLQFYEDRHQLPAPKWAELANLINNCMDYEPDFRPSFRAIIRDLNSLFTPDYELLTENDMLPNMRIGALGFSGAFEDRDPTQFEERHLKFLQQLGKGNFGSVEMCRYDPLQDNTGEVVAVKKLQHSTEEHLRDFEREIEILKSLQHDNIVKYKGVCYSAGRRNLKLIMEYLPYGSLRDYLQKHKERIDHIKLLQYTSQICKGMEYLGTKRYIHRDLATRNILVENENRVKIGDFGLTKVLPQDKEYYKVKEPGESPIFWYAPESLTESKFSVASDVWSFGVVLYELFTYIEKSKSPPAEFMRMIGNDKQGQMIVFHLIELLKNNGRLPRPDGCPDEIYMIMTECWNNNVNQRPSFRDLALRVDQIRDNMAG
UniProt P52333, whole entry: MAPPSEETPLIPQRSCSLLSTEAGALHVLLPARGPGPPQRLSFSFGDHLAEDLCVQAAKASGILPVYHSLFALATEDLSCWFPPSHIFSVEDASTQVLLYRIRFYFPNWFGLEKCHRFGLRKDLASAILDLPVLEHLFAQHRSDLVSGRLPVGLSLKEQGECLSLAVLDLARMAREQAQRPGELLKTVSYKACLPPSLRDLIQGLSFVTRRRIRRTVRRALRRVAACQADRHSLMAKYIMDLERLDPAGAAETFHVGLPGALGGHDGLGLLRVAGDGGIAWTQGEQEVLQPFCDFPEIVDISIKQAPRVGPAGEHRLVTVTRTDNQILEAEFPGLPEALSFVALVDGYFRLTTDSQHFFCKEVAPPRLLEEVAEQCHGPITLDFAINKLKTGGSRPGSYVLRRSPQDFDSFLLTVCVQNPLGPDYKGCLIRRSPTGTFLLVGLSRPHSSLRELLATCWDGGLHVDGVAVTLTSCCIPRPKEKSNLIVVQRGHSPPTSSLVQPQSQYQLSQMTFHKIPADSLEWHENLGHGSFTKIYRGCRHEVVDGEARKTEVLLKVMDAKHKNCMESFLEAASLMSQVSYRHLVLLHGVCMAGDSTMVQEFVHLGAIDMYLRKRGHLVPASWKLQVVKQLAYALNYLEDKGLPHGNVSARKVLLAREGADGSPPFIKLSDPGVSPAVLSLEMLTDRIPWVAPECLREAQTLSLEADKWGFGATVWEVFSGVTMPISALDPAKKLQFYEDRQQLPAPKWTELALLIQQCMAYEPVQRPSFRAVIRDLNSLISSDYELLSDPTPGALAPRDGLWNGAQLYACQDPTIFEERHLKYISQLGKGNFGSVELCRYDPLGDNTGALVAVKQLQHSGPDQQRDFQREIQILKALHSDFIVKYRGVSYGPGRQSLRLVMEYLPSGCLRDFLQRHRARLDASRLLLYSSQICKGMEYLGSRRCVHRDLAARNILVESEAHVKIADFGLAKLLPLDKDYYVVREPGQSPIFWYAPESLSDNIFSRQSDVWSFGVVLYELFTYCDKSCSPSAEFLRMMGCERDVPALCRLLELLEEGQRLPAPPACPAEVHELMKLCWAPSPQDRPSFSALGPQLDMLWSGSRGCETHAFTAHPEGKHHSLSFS
UniProt P29597, whole entry: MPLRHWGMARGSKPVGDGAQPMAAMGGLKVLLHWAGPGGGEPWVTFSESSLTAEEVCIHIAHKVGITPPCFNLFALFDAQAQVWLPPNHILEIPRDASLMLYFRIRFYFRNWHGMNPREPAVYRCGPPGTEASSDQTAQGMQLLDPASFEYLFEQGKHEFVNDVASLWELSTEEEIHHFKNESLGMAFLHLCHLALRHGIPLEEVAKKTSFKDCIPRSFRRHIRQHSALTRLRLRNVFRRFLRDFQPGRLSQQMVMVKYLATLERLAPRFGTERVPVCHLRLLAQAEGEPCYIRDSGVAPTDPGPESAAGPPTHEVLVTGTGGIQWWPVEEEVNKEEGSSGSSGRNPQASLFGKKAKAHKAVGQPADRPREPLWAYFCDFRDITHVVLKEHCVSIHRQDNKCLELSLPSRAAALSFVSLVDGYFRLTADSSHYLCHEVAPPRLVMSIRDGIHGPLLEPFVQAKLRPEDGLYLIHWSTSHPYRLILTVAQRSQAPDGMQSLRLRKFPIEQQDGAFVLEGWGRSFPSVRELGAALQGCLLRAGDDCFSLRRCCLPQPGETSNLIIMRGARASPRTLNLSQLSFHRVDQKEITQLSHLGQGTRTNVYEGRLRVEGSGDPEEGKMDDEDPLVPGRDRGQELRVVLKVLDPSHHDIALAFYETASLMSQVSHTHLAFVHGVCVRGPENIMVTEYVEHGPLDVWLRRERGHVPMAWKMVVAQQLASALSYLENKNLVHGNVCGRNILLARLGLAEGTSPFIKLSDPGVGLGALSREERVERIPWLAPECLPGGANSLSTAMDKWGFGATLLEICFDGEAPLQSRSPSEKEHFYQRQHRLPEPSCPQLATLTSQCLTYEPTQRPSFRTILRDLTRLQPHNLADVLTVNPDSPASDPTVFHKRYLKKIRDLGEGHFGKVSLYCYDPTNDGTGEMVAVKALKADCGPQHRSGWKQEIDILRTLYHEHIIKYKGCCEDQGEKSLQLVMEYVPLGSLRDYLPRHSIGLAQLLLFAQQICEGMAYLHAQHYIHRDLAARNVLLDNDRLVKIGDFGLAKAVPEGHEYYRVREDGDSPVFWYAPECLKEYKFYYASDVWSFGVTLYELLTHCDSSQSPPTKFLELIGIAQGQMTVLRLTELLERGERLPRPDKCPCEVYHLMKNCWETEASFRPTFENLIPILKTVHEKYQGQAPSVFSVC

Assays:
Recombinant JAK1 = Recombinant JAK1 (Homo sapiens, UniProt P23458); test: JAK biochemical assay (LANCE Ultra TR-FRET), JAK1; settings: read-out: Biochemical Assay (μM) JAK1
Recombinant JAK2 = Recombinant JAK2 (Homo sapiens, UniProt O60674); test: JAK biochemical assay (LANCE Ultra TR-FRET), JAK2; settings: read-out: Biochemical Assay (μM) JAK2
Recombinant JAK3 = Recombinant JAK3 (Homo sapiens, UniProt P52333); test: JAK biochemical assay (LANCE Ultra TR-FRET), JAK3; settings: read-out: Biochemical Assay (μM) JAK3
Recombinant TYK2 = Recombinant TYK2 (Homo sapiens, UniProt P29597); test: JAK biochemical assay (LANCE Ultra TR-FRET), TYK2; settings: read-out: Biochemical Assay (μM) TYK2
[1] = tested on: STAT3 phosphorylation by IL-6 in TF-1 cells; test: JAK cellular assay: STAT3 phosphorylation by IL-6 in TF-1 cells (HTRF); settings: read-out: Cell Based Assay (μM) TF-1/IL-6/pSTAT3, IL-6 30 ng/ml
[2] = tested on: STAT5 phosphorylation by GMCSF in TF-1 cells; test: JAK cellular assay: STAT5 phosphorylation by GMCSF in TF-1 cells (HTRF); settings: read-out: Cell Based Assay (μM) TF-1/GMCSF/pSTAT5, GMCSF 5 ng/ml
[3] = tested on: STAT5 phosphorylation by IL-2 in HT-2 cells; test: STAT5 phosphorylation by IL-2 in HT-2 cells (HTRF); settings: read-out: Cell Based Assay (μM) HT-2/IL-2/pSTAT5, IL-2 50 U/ml

Compound	IC50 (Recombinant JAK1) [µM]	IC50 (Recombinant JAK2) [µM]	IC50 (Recombinant JAK3) [µM]	IC50 (Recombinant TYK2) [µM]	IC50 [1] [µM]	IC50 [2] [µM]	IC50 [3] [µM]
O=C(NCC(F)(F)F)C(O)c1ccc(-n2cc(-c3ccnc4[nH]cnc34)cn2)nc1 (centres unmarked)	> 0.5	> 1	> 0.5	> 1			
O=C(NC1CC1)NC(c1ccc(-n2cc(-c3ccnc4[nH]cnc34)cn2)nc1)C(F)(F)F (centres unmarked) [Example 1178, 1-(1-(6-(4-(3H-imidazo[4,5-b]pyridin-7-yl)-1H-Pyrazol-1-yl)pyridin-3-yl)-2,2,2-trifluoroethyl)-3-cyclopropylurea]	< 0.1	< 0.1	< 0.1	< 0.1	> 0.1	> 0.1	> 0.1

The structures given here were assigned with low confidence; some may be wrong.
